According to patent US20170007709A1, “GLYCOAMINO ACID AND USE THEREOF” (AJINOMOTO CO., INC., priority 2014, published 2017):
“Also recorded” adds a separate entry of the source.

Assay: Sensory evaluation of bitter taste
Conditions: 0.1 ml of 0.5% (5000 ppm) solution in water dropped on the tongue, compared with leucine

For `CC(C)C[C@H](NC(=O)OC1O[C@H](CO)[C@@H](O)[C@H](O)[C@H]1O)C(=O)O` (stereo partly drawn) [Glc-Leu, N-(α/β-D-glucopyranosyloxycarbonyl)-L-leucine], the “sensory evaluation of bitter taste, test subject A” value was “No bitter taste”, the “sensory evaluation of bitter taste, test subject B” value was “No bitter taste; also recorded: faintly sweet” and the “sensory evaluation of bitter taste, test subject C” value was “No bitter taste”.
In the case of `CC(C)C[C@H](NC(=O)OC1O[C@H](CO)[C@@H](O)[C@H](O)[C@H]1O)C(=O)NC1O[C@H](CO)[C@@H](O)[C@H](O)[C@H]1O` (stereo partly drawn) [Glc-Leu-Glc, N—(N-(α/β-D-glucopyranosyloxycarbonyl)-L-leucyl)-β-D-glucopyranosylamine], the “sensory evaluation of bitter taste, test subject A” value was “No bitter taste”, the “sensory evaluation of bitter taste, test subject B” value was “No bitter taste; also recorded: faintly sweet” and the “sensory evaluation of bitter taste, test subject C” value was “No bitter taste”.
